Data reported in PubChem BioAssay AID720551 (National Center for Advancing Translational Sciences (NCATS), 2013).
Hit rate of the full screen: of about 340,000 compounds, about 1,300 (0.38%) were called active. Inconclusive results, whose numbers are uncertain, are shown with a selection of clear calls.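 How the source made its calls: active means maximum activity change below -70%; inconclusive means maximum activity change between -70% and -50%; inactive means maximum activity change above -50%.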

By UniProt entry, the sequences of proteins in these tests, tags left out.
UniProt Q12809, whole entry, looked up: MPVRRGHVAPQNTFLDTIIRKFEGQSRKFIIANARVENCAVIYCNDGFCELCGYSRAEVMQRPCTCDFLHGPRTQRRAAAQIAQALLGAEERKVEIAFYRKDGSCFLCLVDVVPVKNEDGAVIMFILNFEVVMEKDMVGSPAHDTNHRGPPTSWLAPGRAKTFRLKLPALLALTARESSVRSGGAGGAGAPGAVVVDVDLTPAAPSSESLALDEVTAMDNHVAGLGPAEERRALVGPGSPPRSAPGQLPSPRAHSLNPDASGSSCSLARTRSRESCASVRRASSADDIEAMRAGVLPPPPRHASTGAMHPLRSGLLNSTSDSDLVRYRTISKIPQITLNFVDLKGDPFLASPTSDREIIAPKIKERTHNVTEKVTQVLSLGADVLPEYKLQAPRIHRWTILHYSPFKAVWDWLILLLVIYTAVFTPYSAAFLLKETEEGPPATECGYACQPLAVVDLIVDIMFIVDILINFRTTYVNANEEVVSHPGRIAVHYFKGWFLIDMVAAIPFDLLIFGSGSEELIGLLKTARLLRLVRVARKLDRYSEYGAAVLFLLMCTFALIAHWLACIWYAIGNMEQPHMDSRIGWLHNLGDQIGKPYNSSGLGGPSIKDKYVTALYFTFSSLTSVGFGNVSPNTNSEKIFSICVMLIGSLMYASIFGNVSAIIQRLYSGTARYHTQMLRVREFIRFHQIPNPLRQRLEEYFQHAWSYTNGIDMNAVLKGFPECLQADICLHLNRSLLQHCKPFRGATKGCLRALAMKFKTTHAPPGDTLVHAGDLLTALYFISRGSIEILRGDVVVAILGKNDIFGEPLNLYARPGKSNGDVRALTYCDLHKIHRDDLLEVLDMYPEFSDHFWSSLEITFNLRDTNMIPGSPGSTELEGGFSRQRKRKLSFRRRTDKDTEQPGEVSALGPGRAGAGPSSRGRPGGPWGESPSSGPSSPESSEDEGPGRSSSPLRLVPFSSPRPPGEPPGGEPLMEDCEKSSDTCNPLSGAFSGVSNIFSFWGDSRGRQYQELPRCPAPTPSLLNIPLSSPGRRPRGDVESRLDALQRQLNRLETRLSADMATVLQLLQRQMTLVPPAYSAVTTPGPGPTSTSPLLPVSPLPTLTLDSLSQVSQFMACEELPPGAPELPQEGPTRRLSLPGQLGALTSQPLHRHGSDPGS

Target: Voltage-gated inwardly rectifying potassium channel KCNH2 (Homo sapiens) (UniProt Q12809)
Assay: qHTS for Inhibitors of KCHN2 3.1: Wildtype qHTS
Conditions: U2OS, BacMam KCNH2, thallium flux FluxOr; at 1.84 µM, active compounds read low
How it was run: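 U2OS cells transduced with wild-type KCNH2 virus are loaded with FluxOr dye for 45 min, and thallium flux is measured in kinetic reads before and after stimulation buffer. Rate constants are normalized to DMSO controls.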
On the % scale 0 is the no-effect control and ±100 the full control effect.

SMILES | activity change
O=C(c1ccc([N+](=O)[O-])cc1)N(Cc1ccc(Cl)cc1)N1C(=O)CCCC1=O | inconclusive: -64.6%
CSc1ccc(C(=O)C2CCCN(Cc3cccc4nccnc34)C2)cc1 (stereo not given) | inconclusive: -69.9%
CCOCc1nc(N)nc(N)c1-c1cccc(Cl)c1 | inconclusive: -57.1%
C[N+](C)(C)CC(O)CC(=O)O (stereo not given) | active: -295%
CCCn1ncc(CN2CCC(C(=O)Nc3cccc(-c4cccc(F)c4)c3)CC2)c1C | inconclusive: -64.3%
CCCn1c(C)cc(/C=C(\C#N)C(=O)OCC(=O)NC(=O)NC(C)(C)C)c1C | inactive: 48.8%
CCOC(=O)N/N=C\c1ccc(OC(=O)c2ccco2)cc1 | active: -154%
Clc1c(-c2ccccc2)nnn1-c1ccccc1 | inconclusive: -51.9%
Cc1ccc(OC(=O)C2c3ccccc3Oc3ccccc32)cc1C | active: -131%
c1ccc(CN=C2NN=C(c3ccccc3)CS2)cc1 | inactive: -3.82%
Cc1ccc(/C=N/n2c(COc3ccccc3)n[nH]c2=S)cc1 | inconclusive: -60.3%
CCOCCOC(=O)c1cccc2c1-c1ccccc1C2=O | inconclusive: -52.7%
CS(=O)(=O)c1ccc2nc(NC3(C(F)(F)F)N=C4SCCN4C3=O)sc2c1 (stereo not given) | active: -85%
COc1ccc(C(=O)CC(=O)Nc2ccc([N+](=O)[O-])cc2)cc1 | inconclusive: -62.1%
COc1ccc(CCN(C)CC(O)COC(c2ccc(F)cc2)c2ccc(F)cc2)cc1OC (stereo not given) | active: -144%
COc1ccccc1C(=O)NC(=S)N1CCCc2ccccc21 | inconclusive: -62%
Cc1ccc(NC(=O)c2ncn(CCCN(CCCn3cnc(C(=O)Nc4ccc(C)c(C)c4)n3)Cc3ccc4[nH]ccc4c3)n2)cc1C | active: -90.6%
CC(=O)c1cccc(CN2CCN(C3CCCCC3)C(CCO)C2)c1 (stereo not given) | inconclusive: -55.5%
CN(C)CCN(Cc1ccccc1)C(=O)[C@H](Cc1ccccc1)N1C(=O)c2ccccc2C1=O | inactive: 1.71%
O=C(OCc1ccccc1)/C(=C/c1cccc([N+](=O)[O-])c1)NC(=O)c1ccco1 | inconclusive: -52%
O=C(NC(=S)N(Cc1ccccc1)Cc1ccccc1)c1ccccc1F | inconclusive: -51.6%
Cc1ccc2nsnc2c1NC(=O)c1ccc(-c2cc(Cl)ccc2Cl)o1 | inconclusive: -56.3%
Cc1noc(C)c1NC(=O)Nc1ccc2c(c1)C(=O)N([C@H](C)CO)C[C@H](C)[C@@H](CN(C)S(=O)(=O)c1ccccc1)O2 | inactive: -9.79%
O=C(Nc1ccccc1[N+](=O)[O-])c1cccnc1Cl | inconclusive: -50.8%
O=[N+]([O-])c1ccc(Cl)c(S(=O)(=O)NCCc2ccccn2)c1 | inactive: 7.48%
Cc1ccsc1C(=O)OCC(=O)Nc1c(C)n(C)n(-c2ccccc2)c1=O | inactive: 0.497%
CC(C)(C)c1nnc(SCC(=O)Nc2ccc(N3CCCCC3)cc2)n1N | inactive: -5.38%
COc1ccc(OCc2n(CC(=O)OC3CC(C)CCC3C(C)C)c3ccccc3[n+]2C)cc1 (stereo not given) | inconclusive: -54.9%

Quoted at random: two compounds from above
SMILES | activity change
c1ccc(CN=C2NN=C(c3ccccc3)CS2)cc1 | inactive: -3.82%
CC(=O)c1cccc(CN2CCN(C3CCCCC3)C(CCO)C2)c1 (stereo not given) | inconclusive: -55.5%

Remaining list, next part:

SMILES | activity change
Cc1cc(C)c(C)c(S(=O)(=O)N2CCC(C(=O)N3CCCCCCC3)CC2)c1C | inconclusive: -50.7%
COc1cccc(NC(=O)Nc2cccc(C(=O)O)c2)c1 | inactive: 8.38%
COc1cc2c(cc1OC)-c1cc(Nc3ccc(C(=O)O)cc3)nc(=O)n1CC2 | inactive: 7.2%
CCCCN1CCc2c(c3ccccc3n2Cc2ccccc2)C1 | inconclusive: -55.3%
Cc1c(CC(=O)O)c(=O)oc2cc(OCc3nn[nH]n3)ccc12 | inactive: -0.68%
CCCCCCSc1cc(-c2nc3cc(C)ccn3c2NCCCC)ccc1OC | active: -80.3%
O=C(/C=C/c1ccc(Br)cc1)c1ccc(NC2=NCCCS2)cc1 | inactive: 18.7%
CCCCn1c(N)c(N(CCC(C)C)C(=O)c2c(C)noc2C)c(=O)[nH]c1=O | inconclusive: -51.8%
CC(=O)c1cccc(N(C(=O)c2ccco2)C(C(=O)NC2CCCC2)c2ccncc2)c1 (stereo not given) | active: -115%
O=C(NCCF)[C@H]1C[C@@H]1[C@H](NP(=O)(c1ccccc1)c1ccccc1)c1ccccc1 | inconclusive: -51.2%
COc1cccc(OC)c1OCCN1CCN(C(c2ccccc2)c2ccccc2)CC1 | inconclusive: -60.4%
COc1ccc(NC(=O)c2sc3ncnc(N4CCN(c5ccccn5)CC4)c3c2C)cc1Cl | active: -118%
CCCCN(C)CCCNC(=O)c1cn(CC)c2ccc(S(=O)(=O)N3CCc4ccccc4C3)cc2c1=O | inconclusive: -56.5%
Nc1nc(N)nc(-c2cc(F)ccc2O)n1 | inactive: 14.1%
COc1ccc(OCC(=O)Nc2c(C(=O)N(CCN(C)C)Cc3ccco3)oc3ccccc23)cc1 | inconclusive: -63.2%
CC(=O)c1ccc(NC(=O)COC(=O)Cc2ccsc2)cc1 | inconclusive: -51%
O=C1C2CC=C(Cl)CC2C(=O)N1CCc1c[nH]c2ccccc12 (stereo not given) | inconclusive: -54%
COc1ccc([N+](=O)[O-])cc1NC(=O)c1ccccc1SC | inactive: 28.4%
Cc1cc(C)c(S(=O)(=O)N2CCN(c3ccccn3)CC2)c(C)c1 | inactive: -7.96%
Cc1ccc(C(=O)N/C(=C\c2ccc(F)cc2)C(=O)NCCCn2ccnc2)cc1 | active: -95%
COc1ccc(C(=O)NC2CC2)cc1OC1CCN(Cc2cc(C)c(C)cc2C)CC1 | inconclusive: -58.1%
N=c1c(-c2nc3ccccc3[nH]2)cc(C(=O)c2ccco2)nn1-c1ccccc1 | inconclusive: -51.4%
O=S(=O)(Nc1cccc2c1ccc1cccn12)c1cccs1 | inactive: -7.98%
Cc1ccccc1OCC(O)Cn1c(SC(C)C)nc2c1c(=O)[nH]c(=O)n2C (stereo not given) | inactive: -14.1%
CC(C)Cc1ccc(CN2CCC(n3nccc3NC(=O)C3CCCC3)CC2)cc1 | active: -73.2%
CCc1ccc(NC(=O)C2CCCN(S(=O)(=O)c3ccc4c(c3)CCCN4C(C)=O)C2)cc1 (stereo not given) | inconclusive: -53.6%
CCOc1ccc2c(c1)N(C(=O)CN1C(=O)CCC1=O)C(C)(C)C=C2C | inactive: 2.58%
